According to PubChem BioAssay (EPA / NIEHS):
Inconclusive means that the source gave no clear call. Such entries were picked first, then a sample of the others. For some assays here: Potencies of inconclusive entries are doubtful fits and often do not repeat. The source made the active and inactive calls. The calls were made as follows: active = hit-call score of the fitted dose curve at least 0.9, where 1 is the maximum; inconclusive = response in the unintended direction; inactive = score below 0.9.

Protein sequences, listed by entry. Tags and fused reporters are not part of them. Lines headed by an entry give the natural chain unless they say otherwise; changes in a name come on top.
UniProt P08253: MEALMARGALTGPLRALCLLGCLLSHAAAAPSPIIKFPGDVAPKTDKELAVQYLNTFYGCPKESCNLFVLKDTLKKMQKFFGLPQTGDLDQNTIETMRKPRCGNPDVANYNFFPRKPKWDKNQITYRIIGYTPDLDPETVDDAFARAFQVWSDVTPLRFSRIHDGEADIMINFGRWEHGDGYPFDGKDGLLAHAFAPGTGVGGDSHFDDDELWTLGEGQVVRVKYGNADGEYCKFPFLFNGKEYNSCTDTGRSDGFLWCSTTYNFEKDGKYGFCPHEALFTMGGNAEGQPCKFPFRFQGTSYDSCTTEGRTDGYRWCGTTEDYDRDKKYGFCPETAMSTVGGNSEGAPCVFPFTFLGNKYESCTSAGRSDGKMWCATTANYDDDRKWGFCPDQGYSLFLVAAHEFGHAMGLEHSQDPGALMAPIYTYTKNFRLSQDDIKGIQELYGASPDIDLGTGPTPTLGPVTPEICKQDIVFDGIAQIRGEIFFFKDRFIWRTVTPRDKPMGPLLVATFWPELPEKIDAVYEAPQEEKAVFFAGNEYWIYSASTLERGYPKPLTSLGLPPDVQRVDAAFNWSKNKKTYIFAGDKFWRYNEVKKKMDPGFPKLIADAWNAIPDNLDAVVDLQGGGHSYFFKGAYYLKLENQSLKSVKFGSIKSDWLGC
UniProt O75582, whole entry, looked up: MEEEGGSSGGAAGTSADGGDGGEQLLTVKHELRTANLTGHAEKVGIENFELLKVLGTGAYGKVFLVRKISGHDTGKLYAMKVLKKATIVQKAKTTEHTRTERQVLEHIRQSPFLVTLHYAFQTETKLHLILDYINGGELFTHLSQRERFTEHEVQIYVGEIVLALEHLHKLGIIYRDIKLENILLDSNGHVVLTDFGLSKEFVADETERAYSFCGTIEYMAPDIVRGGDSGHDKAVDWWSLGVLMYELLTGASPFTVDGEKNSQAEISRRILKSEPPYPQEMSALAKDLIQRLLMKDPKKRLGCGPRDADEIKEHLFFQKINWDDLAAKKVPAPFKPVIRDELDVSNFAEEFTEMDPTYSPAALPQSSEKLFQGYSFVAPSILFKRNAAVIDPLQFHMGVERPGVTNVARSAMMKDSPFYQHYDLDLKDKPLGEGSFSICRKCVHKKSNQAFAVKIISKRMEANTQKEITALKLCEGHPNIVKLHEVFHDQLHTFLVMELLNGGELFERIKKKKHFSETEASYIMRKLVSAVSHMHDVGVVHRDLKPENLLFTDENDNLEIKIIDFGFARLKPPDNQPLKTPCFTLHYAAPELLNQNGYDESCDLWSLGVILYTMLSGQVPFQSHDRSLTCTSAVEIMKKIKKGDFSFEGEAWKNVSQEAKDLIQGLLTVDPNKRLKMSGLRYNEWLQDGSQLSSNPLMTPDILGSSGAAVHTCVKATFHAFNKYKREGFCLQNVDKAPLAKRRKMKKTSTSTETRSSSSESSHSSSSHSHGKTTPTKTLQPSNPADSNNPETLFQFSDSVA
UniProt P41144: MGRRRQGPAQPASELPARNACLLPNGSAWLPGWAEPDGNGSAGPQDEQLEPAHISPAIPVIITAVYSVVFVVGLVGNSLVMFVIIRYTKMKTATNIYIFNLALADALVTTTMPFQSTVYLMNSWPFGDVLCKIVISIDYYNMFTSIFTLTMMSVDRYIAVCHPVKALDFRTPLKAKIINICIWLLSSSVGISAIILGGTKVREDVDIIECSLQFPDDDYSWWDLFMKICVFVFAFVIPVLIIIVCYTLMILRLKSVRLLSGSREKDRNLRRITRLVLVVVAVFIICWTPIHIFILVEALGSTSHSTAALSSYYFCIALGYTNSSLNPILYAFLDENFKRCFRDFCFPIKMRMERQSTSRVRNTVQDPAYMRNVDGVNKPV
UniProt P49146, whole entry, looked up: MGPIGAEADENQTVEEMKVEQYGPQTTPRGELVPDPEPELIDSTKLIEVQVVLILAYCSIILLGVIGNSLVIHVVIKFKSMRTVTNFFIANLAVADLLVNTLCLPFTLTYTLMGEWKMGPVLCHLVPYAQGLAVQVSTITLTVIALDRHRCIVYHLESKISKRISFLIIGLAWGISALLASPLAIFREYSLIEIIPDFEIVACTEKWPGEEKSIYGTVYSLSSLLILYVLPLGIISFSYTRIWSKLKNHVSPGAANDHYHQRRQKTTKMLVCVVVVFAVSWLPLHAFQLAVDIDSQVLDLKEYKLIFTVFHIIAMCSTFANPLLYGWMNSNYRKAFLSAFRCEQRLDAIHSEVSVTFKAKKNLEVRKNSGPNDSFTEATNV
UniProt P30560, whole entry, looked up: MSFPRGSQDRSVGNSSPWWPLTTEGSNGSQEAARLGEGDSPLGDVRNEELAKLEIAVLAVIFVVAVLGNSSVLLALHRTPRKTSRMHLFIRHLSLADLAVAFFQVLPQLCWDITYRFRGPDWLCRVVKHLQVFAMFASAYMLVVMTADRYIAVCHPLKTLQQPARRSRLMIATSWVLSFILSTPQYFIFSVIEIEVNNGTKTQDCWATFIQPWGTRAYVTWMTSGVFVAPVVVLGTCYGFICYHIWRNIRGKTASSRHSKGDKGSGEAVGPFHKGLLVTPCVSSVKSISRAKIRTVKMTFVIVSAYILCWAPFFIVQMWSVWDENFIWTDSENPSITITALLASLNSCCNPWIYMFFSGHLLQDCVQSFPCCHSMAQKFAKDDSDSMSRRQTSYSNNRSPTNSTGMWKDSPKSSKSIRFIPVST
UniProt P31652, whole entry, looked up: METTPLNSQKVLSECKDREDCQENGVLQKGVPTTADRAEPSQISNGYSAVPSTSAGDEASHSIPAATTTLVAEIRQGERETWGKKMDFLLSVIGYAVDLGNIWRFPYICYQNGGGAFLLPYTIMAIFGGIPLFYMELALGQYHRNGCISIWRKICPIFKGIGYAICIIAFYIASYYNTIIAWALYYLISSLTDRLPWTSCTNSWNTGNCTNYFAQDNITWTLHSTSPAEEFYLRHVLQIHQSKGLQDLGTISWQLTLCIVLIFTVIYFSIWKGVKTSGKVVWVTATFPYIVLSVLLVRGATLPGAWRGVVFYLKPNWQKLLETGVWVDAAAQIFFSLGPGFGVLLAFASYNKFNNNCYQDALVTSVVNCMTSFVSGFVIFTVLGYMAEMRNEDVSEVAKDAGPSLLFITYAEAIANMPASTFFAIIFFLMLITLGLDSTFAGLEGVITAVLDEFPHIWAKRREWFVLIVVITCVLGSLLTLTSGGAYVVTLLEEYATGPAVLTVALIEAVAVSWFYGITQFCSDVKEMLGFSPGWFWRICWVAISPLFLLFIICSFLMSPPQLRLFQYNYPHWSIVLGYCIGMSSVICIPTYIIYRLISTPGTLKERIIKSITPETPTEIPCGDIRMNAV
UniProt P37231: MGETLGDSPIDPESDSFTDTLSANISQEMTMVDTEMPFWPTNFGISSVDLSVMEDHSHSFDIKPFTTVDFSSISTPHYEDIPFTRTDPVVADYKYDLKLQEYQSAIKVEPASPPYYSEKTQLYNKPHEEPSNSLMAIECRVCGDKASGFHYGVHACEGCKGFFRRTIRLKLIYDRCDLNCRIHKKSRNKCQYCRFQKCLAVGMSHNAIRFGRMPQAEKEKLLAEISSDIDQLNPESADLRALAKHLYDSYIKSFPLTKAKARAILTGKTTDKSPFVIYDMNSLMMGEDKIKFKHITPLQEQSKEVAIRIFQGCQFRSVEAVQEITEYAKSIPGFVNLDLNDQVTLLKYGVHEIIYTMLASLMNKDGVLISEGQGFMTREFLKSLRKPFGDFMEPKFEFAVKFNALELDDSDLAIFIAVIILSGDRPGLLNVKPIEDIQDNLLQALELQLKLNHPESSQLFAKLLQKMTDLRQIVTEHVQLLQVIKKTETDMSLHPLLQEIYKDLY
UniProt P10827: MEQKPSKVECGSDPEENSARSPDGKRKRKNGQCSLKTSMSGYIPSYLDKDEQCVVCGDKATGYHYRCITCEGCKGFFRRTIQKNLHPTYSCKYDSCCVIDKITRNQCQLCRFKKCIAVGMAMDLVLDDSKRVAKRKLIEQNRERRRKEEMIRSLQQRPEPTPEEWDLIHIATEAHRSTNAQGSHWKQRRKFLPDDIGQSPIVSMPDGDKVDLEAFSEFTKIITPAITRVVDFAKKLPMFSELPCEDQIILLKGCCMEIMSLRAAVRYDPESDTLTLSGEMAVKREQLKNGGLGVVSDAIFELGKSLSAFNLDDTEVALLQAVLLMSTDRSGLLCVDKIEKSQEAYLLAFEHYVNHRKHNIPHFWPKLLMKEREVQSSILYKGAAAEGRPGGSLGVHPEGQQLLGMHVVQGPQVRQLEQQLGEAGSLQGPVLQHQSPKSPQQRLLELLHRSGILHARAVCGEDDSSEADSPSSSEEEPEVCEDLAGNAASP
UniProt P48730: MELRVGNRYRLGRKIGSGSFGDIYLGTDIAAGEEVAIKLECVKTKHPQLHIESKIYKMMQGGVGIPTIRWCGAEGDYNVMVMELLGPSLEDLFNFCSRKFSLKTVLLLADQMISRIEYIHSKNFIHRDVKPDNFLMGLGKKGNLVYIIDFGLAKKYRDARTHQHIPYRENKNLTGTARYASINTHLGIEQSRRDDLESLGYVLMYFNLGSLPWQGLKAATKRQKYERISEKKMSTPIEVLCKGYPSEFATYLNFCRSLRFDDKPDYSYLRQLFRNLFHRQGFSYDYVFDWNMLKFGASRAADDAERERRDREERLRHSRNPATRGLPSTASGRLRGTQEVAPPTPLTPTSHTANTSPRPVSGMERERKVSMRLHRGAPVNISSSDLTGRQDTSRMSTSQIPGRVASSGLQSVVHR

Experiments:
[1] = target: human Matrix Metalloproteinase-2 (MMP2), MMP2 (gene 4313) (UniProt P08253); assay: NVS_ENZ_hMMP2: NovaScreen (NVS) Enzymatic Assay for human Matrix Metalloproteinase-2 (MMP2) (AID 2283184)
Summary of the method: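 Cell-free recombinant MMP2 activity with a fluorescent substrate, read 1 h after dosing. Primary screen in duplicate at 25 uM; actives then run in concentration series; loss of signal fitted versus DMSO.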

[2] = target: human Mitogen- and Stress-activated Protein Kinase-1 (Msk1), RPS6KA5 (gene 9252) (UniProt O75582); assay: NVS_ENZ_hMsk1: NovaScreen (NVS) Enzymatic Assay for human Mitogen- and Stress-activated Protein Kinase-1 (Msk1) (AID 2283187)
Summary of the method: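 Recombinant kinase with fluorescent substrate; product separated by electrophoretic mobility shift, read 1 h after dosing. Screened in duplicate at 25 uM; hits (e.g. ≥30% inhibition) tested in concentration–response up to 50 uM. DMSO baseline.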

[3] = target: Tyrosine-protein phosphatase non-receptor type 11 (Homo sapiens) (UniProt Q06124); assay: NVS_ENZ_hPTPN11: NovaScreen (NVS) Enzymatic Assay for human Protein Tyrosine Phosphatase Non-receptor Type 11 (PTPN11) (AID 2283202)
Summary of the method: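 Recombinant human PTPN11 activity on a fluorescent substrate, with substrate/product separated by electrophoretic mobility shift; read 0.5 h after dosing, loss of signal vs DMSO. Duplicate 25 uM screen, then concentration-response up to 50 uM.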

[4] = target: guinea pig Opioid, Kappa 1 Receptor (OpiateK), OPRK1 (gene 100135587) (UniProt P41144); assay: NVS_GPCR_gOpiateK: NovaScreen (NVS) G Protein-Coupled Receptor Assay for guinea pig Opioid, Kappa 1 Receptor (OpiateK) (AID 2283252);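 also: radioligand displacement from kappa opioid receptor in guinea pig cerebellar membranes; active means reduced radioligand binding relative to DMSO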
Summary of the method: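 Guinea pig cerebellar membranes, radioligand displacement with filter-based scintillation counting, 2 h after dosing. Primary screen single concentration 25 uM in duplicate; actives retested in concentration series; loss of binding fitted versus DMSO.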

[5] = target: Neuropeptide Y receptor type 2 (Homo sapiens) (UniProt P49146); assay: NVS_GPCR_hNPY2: NovaScreen (NVS) G Protein-Coupled Receptor Assay for human Neuropeptide Receptor Y2 (NPY2) (AID 2283277)
Summary of the method: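 Radioligand binding on membranes extracted from SK-N-MC cells, cell-free, read 1 h after dosing by filter-based scintillation counting. Loss of signal vs DMSO. Primary screen in duplicate at 25 uM; actives followed up in concentration-response up to 50 uM.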

[6] = tested on: guinea pig Atrionatriuretic Peptide Receptor A (ANPA), gene 100135578; assay: NVS_GPCR_gANPA: NovaScreen (NVS) G Protein-Coupled Receptor Assay for guinea pig Atrionatriuretic Peptide Receptor A (ANPA) (AID 2283291)
Summary of the method: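 Radioligand binding to guinea pig cerebellar membranes was measured after 1 h by filter-based scintillation counting. Chemicals were tested in duplicate at 25 uM, with hits run in concentration-response to a maximum of 50 uM. Binding loss was fitted against DMSO.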

[7] = target: rat Vasopressin 1 Receptor (V1), Avpr1a (gene 25107) (UniProt P30560); assay: NVS_GPCR_rV1: NovaScreen (NVS) G Protein-Coupled Receptor Assay for rat Vasopressin 1 Receptor (V1) (AID 2283316)
Summary of the method: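 Radioligand binding on rat liver membranes, 1.5 h incubation, filter-based scintillation counting. Single 25 uM screen in duplicate; chemicals meeting threshold (e.g. 30% inhibition) run in concentration-response up to 50 uM.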

[8] = target: rat Glutamate, MK-801 Agonist Site (GluNMDA_MK801), Grin1 (gene 24408) (UniProt P35439); assay: NVS_LGIC_rGluNMDA_MK801_Agonist: NovaScreen (NVS) Ligand-Gated Ion Channel Assay for rat Glutamate, MK-801 Agonist Site (GluNMDA_MK801) (AID 2283340)
Summary of the method: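 Radioligand binding at MK-801 site in rat forebrain membranes, 1.5 h incubation, filter-based scintillation counting. Initially 25 uM in duplicate; actives then run in concentration-response up to 50 uM, fitted for gain of signal versus DMSO.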

[9] = target: rat Serotonin Transporter (SERT), Slc6a4 (gene 25553) (UniProt P31652); assay: NVS_TR_rSERT: NovaScreen (NVS) Transporter Assay for rat Serotonin Transporter (SERT) (AID 2283375)
Summary of the method: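 Rat forebrain membranes were incubated with test chemical for 1 hour; radioligand binding to SERT was measured by filter-based scintillation counting. Primary screen ran in duplicate at 25 uM, with actives followed up in concentration series; DMSO served as negative control.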

[10] = Tanguay_ZF_120hpf_SWIM_legacy: (Legacy) Oregon State University Tanguay Lab 120 Hour Post-fertilization zebrafish Assay for Swim Bladder Malformation (AID 2283654);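 also: swim bladder malformation in each larva scored yes or no under brightfield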
Summary of the method: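 Dechorionated wild-type Tropical 5D zebrafish embryos, one per well from 6 hpf, were statically exposed at 28C until 120 hpf in 0.64% DMSO. Swim bladder malformation scored as present/absent by brightfield microscopy; not scored in dead larvae.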

[11] = tested on: zebrafish Estrogen Receptor (ESR2A), gene 317734; assay: ATG_zfER2a_XSP1: Attagene TRANS-FACTORIAL Multi-Species (XSP1) HepG2 Assay for zebrafish Estrogen Receptor (ESR2A) (AID 2283778)
Summary of the method: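 HepG2 cells transiently transfected with GAL4-UAS reporter units driven by a zebrafish ESR2A–Gal4 chimera; 24 h compound exposure with 3 nM 6-alpha-fluorotestosterone present. Reporter mRNA measured by RT-PCR with fluorescent capillary electrophoresis, fitted positive versus DMSO.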

[12] = tested on: turtle Estrogen Receptor (ESR1), gene 101933533; assay: ATG_trERa_XSP1: Attagene TRANS-FACTORIAL Multi-Species (XSP1) HepG2 Assay for turtle Estrogen Receptor (ESR1) (AID 2283781)
Summary of the method: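 Turtle ERa as a GAL4 chimera in transiently transfected HepG2 cells; reporter mRNA quantified 24 h after dosing by RT-PCR and capillary electrophoresis. 3 nM 6-alpha-fluorotestosterone present; gain of signal versus DMSO.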

[13] = target: Peroxisome proliferator-activated receptor gamma (Homo sapiens) (UniProt P37231); assay: ATG_hPPARg_XSP1: Attagene TRANS-FACTORIAL Multi-Species (XSP1) HepG2 Assay for human Peroxisome Proliferator-activated Receptor gamma (PPARg) (AID 2283800)
Summary of the method: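 HepG2 cells transiently transfected with GAL4-UAS reporter units carrying chimeric NR-Gal4 proteins; 3 nM 6-alpha-fluorotestosterone present. After 24 h dosing, reporter mRNA quantified by RT-PCR and capillary electrophoresis; gain of signal relative to DMSO.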

[14] = ATG_XTT_Cytotoxicity_XSP1: Cytotoxicity Assessment in the Attagene TRANS-FACTORIAL Multi-Species (XSP1) HepG2 Assay (AID 2283810)
Summary of the method: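 XTT viability readout taken at 24 hours post-dosing in HepG2 liver cells co-treated with 3 nM 6-alpha-fluorotestosterone. Signal loss relative to DMSO controls reflects cytotoxicity.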

[15] = target: human Thyroid hormone Receptor alpha (TRa), THRA (gene 7067) (UniProt P10827); assay: ATG_hTRa_XSP2: Attagene TRANS-FACTORIAL Multi-Species (XSP2) HepG2 Assay for human Thyroid hormone Receptor alpha (TRa) (AID 2283838)
Summary of the method: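 HepG2 cells were transiently transfected with GAL4-UAS reporter units for chimeric human TRa-Gal4 and dosed for 24 hours, with 3 nM 6-alpha-fluorotestosterone and 1.5 nM norgestrel present. Reporter mRNA was quantified by RT-PCR, FAM labelling and capillary electrophoresis, with gain of signal fitted versus DMSO.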

[16] = target: human Casein Kinase 1-delta (CK1D), CSNK1D (gene 1453) (UniProt P48730); assay: NVS_ENZ_hCK1D: NovaScreen (NVS) Enzymatic Assay for human Casein Kinase 1-delta (CK1D) (AID 2283148)
Summary of the method: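 Recombinant human CK1-delta, cell-free; fluorescent substrate with electrophoretic mobility-shift separation of product, read 1 h after dosing. Single 25 uM duplicate screen, then concentration-response up to 50 uM; loss of signal vs DMSO.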

Measured: AC50

CC/C(=C(\c1ccccc1)c1ccc(OCCN(C)C)cc1)c1ccccc1
active: [5] 11.9 µM | [14] 26.1 µM
inconclusive: [3] 5.62 µM | [6] 13.6 µM | [8] 22.9 µM | [9] 0.083 µM | [10] 6.85 µM | [11] 1.45 µM | [12] 0.0157 µM | [15] 0.0472 µM
inactive: [1] | [2] | [4] | [7] | [13]

N[C@@H](Cc1c[nH]c2ccccc12)C(=O)O
inconclusive: [6] 12.6 µM

CC(=O)[C@@]1(O)CC[C@H]2[C@@H]3CCC4=CC(=O)CC[C@]4(C)[C@H]3CC[C@@]21C
inconclusive: [16] 25 µM
